Experimental data published in publication PMC13254535, “The RecBCD complex interacts directly with the DNA sliding clamp in Escherichia coli” (Nucleic Acids Research, 2026).

Sequences of proteins named here, by UniProt entry; tags and fusion partners are left off. A change or cut given only in a name is not applied to a line headed by its entry.
UniProt P0A988: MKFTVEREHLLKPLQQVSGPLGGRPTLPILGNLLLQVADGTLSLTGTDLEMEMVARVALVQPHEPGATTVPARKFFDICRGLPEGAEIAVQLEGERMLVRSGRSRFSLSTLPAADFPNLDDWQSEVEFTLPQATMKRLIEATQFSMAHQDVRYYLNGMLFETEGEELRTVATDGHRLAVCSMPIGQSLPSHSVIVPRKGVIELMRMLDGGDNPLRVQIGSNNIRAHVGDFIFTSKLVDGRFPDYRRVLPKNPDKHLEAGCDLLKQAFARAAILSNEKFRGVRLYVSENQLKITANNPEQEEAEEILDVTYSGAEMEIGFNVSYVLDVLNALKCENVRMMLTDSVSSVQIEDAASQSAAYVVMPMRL
UniProt P08394: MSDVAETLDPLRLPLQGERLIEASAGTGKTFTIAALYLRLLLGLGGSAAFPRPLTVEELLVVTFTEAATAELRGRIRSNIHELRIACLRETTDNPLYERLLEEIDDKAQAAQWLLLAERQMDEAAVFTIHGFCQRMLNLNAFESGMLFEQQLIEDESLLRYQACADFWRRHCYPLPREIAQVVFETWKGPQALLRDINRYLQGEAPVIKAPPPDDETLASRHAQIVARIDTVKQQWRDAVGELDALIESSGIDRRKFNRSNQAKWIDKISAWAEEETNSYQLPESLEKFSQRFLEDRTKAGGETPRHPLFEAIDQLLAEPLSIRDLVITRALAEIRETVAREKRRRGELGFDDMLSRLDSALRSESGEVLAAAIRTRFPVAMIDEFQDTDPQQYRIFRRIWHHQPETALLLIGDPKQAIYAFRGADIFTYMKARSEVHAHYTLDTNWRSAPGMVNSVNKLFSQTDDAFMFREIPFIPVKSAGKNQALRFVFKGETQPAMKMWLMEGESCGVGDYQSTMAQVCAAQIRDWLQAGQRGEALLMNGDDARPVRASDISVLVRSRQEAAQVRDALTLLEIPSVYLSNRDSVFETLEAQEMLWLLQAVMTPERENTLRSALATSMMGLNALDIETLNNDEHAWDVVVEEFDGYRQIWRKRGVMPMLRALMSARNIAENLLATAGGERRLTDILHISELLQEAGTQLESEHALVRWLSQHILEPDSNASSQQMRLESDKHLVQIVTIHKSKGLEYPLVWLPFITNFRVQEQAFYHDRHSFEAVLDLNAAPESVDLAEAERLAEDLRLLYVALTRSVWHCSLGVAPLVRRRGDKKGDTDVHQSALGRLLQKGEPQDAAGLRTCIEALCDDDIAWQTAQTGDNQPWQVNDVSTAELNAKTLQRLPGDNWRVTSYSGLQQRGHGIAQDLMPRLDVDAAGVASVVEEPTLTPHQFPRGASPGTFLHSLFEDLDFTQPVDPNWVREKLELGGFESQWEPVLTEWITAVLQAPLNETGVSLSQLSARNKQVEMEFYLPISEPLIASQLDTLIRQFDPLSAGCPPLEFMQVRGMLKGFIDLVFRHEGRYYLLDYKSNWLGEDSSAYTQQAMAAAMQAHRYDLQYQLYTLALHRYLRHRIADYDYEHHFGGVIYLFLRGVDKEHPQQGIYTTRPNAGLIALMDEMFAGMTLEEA

Target: β-clamp (DnaN)-T25 fusion from pKT25-dnaN (Escherichia coli) (UniProt P0A988)
Test: two-hybrid; BACTH, qualitative X-gal spot (blue/white) assay on LB agar with IPTG and X-gal, 30°C, 2-3 days; an identical plate exposed to UV 15 J/m^2

binding: no binding
Substance: RecB_(Δheli F1023A)–T18 fusion (from UniProt P08394) (domain or fragment)

No constants are given. Whether binding was seen depends on the method and setting.
